PubChem BioAssay AID504793 – Drosophila RNAi Screening Center, 2011
The screen tested about 23,000 reagents; shown is an unselected part of those that have a named target and a result. In the full data, 62 (0.27%) are marked active. 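Calls come from follow-up tests whose scores are not deposited, so confirmed genes may have low counts here; counts are not normalised per plate.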 Raw values are not corrected between plates. A plus sign joins genes that one reagent is predicted to hit. Reagent sequences are not shown.

Assay: 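Knock-downs allowing continued mitosis even though DNA is damaged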 (primary screen)
Cells: Drosophila S2R+ cells
Knock-down reagent: long dsRNA against Drosophila genes, about 0.25 µg dsRNA per well
Timing: 4 days of dsRNA, then 4 hours of drug before read-out
Treatment: doxorubicin 0.5 µM for 4 hours to cause double-strand breaks, in cells also given a low, harmless dose of dsRNA against nbs to sensitise the assay
Measurement: 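Mitotic index as the number of phospho-histone H3-positive cells in each well following doxorubicin, given as raw counts without normalisation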
Reading the numbers: mitotic cells: higher = more cells in mitosis, weaker G2 arrest
Call rule: 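a call needs confirmation in secondary tests, with other dsRNAs and a check of mitotic timing without damage, not just a high primary count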
Calls: active = confirmed in follow-up tests; inactive = not confirmed

| predicted target | amplicon | mitotic cells, replicate 1 | Outcome |
| --- | --- | --- | --- |
| CG14543 | DRSC14887 | 4 | inactive |
| CG14543 | DRSC26647 | 2 | inactive |
| Topors | DRSC06531 | 12 | active |
| CG6938 | DRSC10752 | 2 | inactive |
| CG6938 | DRSC28621 | 3 | inactive |
| CG12438 | DRSC02167 | 2 | inactive |
| CG15219 | DRSC03715 | 3 | inactive |
| CG3748 | DRSC02716 | 6 | inactive |
| CG3748 | DRSC29984 | 2 | inactive |
| Mul1 | DRSC08174 | 8 | inactive |
| Mul1 | DRSC25694 | 3 | inactive |
| CG14841 | DRSC14965 | 4 | inactive |
| CG14841 | DRSC27235 | 1 | inactive |
| Sap30 | DRSC19916 | 11 | inactive |
| Oda | DRSC07626 | 5 | inactive |
| Oda | DRSC28076 | 6 | inactive |
| CG11444 | DRSC17784 | 4 | inactive |
| CG11444 | DRSC24827 | 7 | inactive |
| Gga | DRSC18260 | 3 | inactive |
| Gga | DRSC27761 | 5 | inactive |
| yellow-b | DRSC03639 | 3 | inactive |
| Rh2 | DRSC16821 | 7 | inactive |
| Rh2 | DRSC25598 | 12 | inactive |
| Drgx | DRSC00278 | 12 | inactive |
| Drgx | DRSC00537 | 9 | inactive |
| Drgx | DRSC28844 | 2 | inactive |
| CG3609 | DRSC00620 | 5 | inactive |
| CG3609 | DRSC29005 | 3 | inactive |
| Pask | DRSC04337 | 1 | inactive |
| Pask | DRSC28829 | 7 | inactive |
| Mst77F | DRSC11871 | 3 | inactive |
| CG5116 | DRSC15720 | 8 | inactive |
| Ypel | DRSC17996 | 11 | inactive |
| Ypel | DRSC26440 | 4 | inactive |
| CG8841 | DRSC07286 | 4 | inactive |
| Itgbn | DRSC03493 | 2 | inactive |
| RalGPS | DRSC06941 | 4 | inactive |
| RalGPS | DRSC27139 | 2 | inactive |
| Rbcn-3B | DRSC18574 | 15 | inactive |
| mEFTs | DRSC02953 | 7 | inactive |
| mEFTs | DRSC30019 | 6 | inactive |
| CG14439 | DRSC17931 | 12 | inactive |
| IPIP | DRSC02164 | 3 | inactive |
| IPIP | DRSC27480 | 8 | inactive |
| CG34168 | DRSC01938 | 4 | inactive |
| dob | DRSC19948 | 9 | inactive |
| na | DRSC19639 | 11 | inactive |
| na | DRSC29828 | 3 | inactive |
| Naglu | DRSC02267 | 9 | inactive |
| Got2 | DRSC00643 | 3 | inactive |
| CG34282 | DRSC16298 | 6 | inactive |
| CG44251 | DRSC06856 | 6 | inactive |
| CG44251 | DRSC24631 | 1 | inactive |
| CG7600 | DRSC09681 | 8 | inactive |
| CG7600 | DRSC25328 | 6 | inactive |
| CG15387 | DRSC00401 | 5 | inactive |
| Proc | DRSC22998 | 9 | inactive |
| kuz | DRSC03555 | 2 | inactive |
| schuy | DRSC10284 | 6 | inactive |
| schuy | DRSC28184 | 7 | inactive |
| CG15431 | DRSC00446 | 2 | inactive |
| CG15431 | DRSC29532 | 4 | inactive |
| CNT2 | DRSC07073 | 8 | inactive |
| CG4020 | DRSC18337 | 13 | inactive |
| CG5149 | DRSC02819 | 8 | inactive |
| CG5149 | DRSC27178 | 5 | inactive |
| emp | DRSC04019 | 6 | inactive |
| emp | DRSC04683 | 1 | inactive |
| CG6959 | DRSC16151 | 10 | inactive |

Records listed so far whose gene name begins with E or e:
| predicted target | amplicon | mitotic cells, replicate 1 | Outcome |
| --- | --- | --- | --- |
| emp | DRSC04019 | 6 | inactive |
| emp | DRSC04683 | 1 | inactive |

The results go on:
| predicted target | amplicon | mitotic cells, replicate 1 | Outcome |
| --- | --- | --- | --- |
| MAN1 | DRSC04342 | 6 | inactive |
| rho-6 | DRSC02588 | 6 | inactive |
| rho-6 | DRSC29070 | 2 | inactive |
| CG33060 | DRSC09939 | 2 | inactive |
| CG33523 | DRSC09814 | 3 | inactive |
| CG33523 | DRSC22155 | 13 | inactive |
| mei-P26 | DRSC23049 | 6 | inactive |
| CG12692 | DRSC17881 | 14 | inactive |
| CG15646 | DRSC19682 | 7 | inactive |
| CG17839 | DRSC10290 | 3 | inactive |
| CG17839 | DRSC10291 | 8 | inactive |
| wcd | DRSC07051 | 4 | inactive |
| CG32147 | DRSC09346 | 7 | inactive |
| CG32147 | DRSC24225 | 4 | inactive |
| Lrt | DRSC06045 | 4 | inactive |
| Lrt | DRSC27086 | 7 | inactive |
| CG7352 | DRSC16233 | 7 | inactive |
| CG14131 | DRSC10135 | 4 | inactive |
| CG14131 | DRSC27727 | 3 | inactive |
| CG32176 | DRSC10057 | 9 | inactive |
| CG32176 | DRSC10058 | 6 | inactive |
| CG32235 | DRSC23257 | 7 | inactive |
| cdi | DRSC16922 | 6 | inactive |
| cdi | DRSC28376 | – | inactive |
| CG13377 | DRSC18622 | 4 | inactive |
| stol | DRSC01956 | 4 | inactive |
| dare + CG30033 | DRSC22908 | 5 | inactive |
| sprt | DRSC07323 | 4 | inactive |
| CG4324 | DRSC04462 | 2 | inactive |
| CG4324 | DRSC27530 | 7 | inactive |
| Amph | DRSC07578 | 6 | inactive |
| rhea | DRSC11300 | 3 | inactive |
| CG10793 | DRSC17760 | 13 | inactive |
| betaTub56D | DRSC07583 | 95 | inactive |
| betaTub56D | DRSC23516 | 103 | inactive |
| CG15208 | DRSC19654 | 5 | inactive |
| Sirt6 | DRSC16010 | 2 | inactive |
| Sirt6 | DRSC29965 | 10 | inactive |
| CG12490 | DRSC04123 | 5 | inactive |
| CG15253 | DRSC01871 | 5 | inactive |
| CG15253 | DRSC26826 | 12 | inactive |
